Screen size: about 1,900 compounds; about 250 (13%) were called active. About 4% were inconclusive and are not listed.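 How the source made its calls: active means fitted curve reaches 40% rescue activity at or below the top valid dose, in every test run; inconclusive means test runs disagree, some active and some inactive; inactive means every run misses the threshold or moves the wrong way.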 This is a selection; strong and weak results do not stand in their true shares. Measured potencies and affinities stand elsewhere.
assay: rescue of simvastatin-induced ATP loss – cell-based, C2C12 myotubes, ATP luminescence, cherry pick, dose response (AID 624405); settings: 48 h, scaled: DMSO wells 0, geranylgeraniol wells 100; at 19.5 µM (top of the series) unless noted;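 further: myotubes are challenged with simvastatin at 10 µM to lower ATP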

SMILES	rescue activity (ATP increase)
CCOc1ccc(-c2nc3n(c(=O)c2C#N)CCCS3)cc1	inactive: -11.7%
CSCc1c(C(=O)NC2CCCc3ccccc32)oc2ccccc12 (stereo not given)	inactive: 28.5%
COc1ccc(CC(=O)Nc2cc(C)on2)cc1OC	inactive: 13.4%
CCN(C(=O)c1nn(-c2ccc(OC)cc2)c(=O)c2c1c1ccccc1n2C)c1ccc(OC)cc1	inactive: -12.7%
CN1C[C@H]2[C@@H](c3ccccc31)[C@H](CO)N2Cc1ccccc1Cl	inactive: -13.7%
Cc1noc(C)c1S(=O)(=O)Nc1ccc2c(c1)CC(=O)N([C@H](C)CO)C[C@H](C)[C@@H](CN(C)Cc1ccc(Cl)c(Cl)c1)O2	inactive: 31.6%
Cc1onc(-c2ccncc2)c1C(=O)O	inactive: -7.13%
C[C@@H]1CN([C@H](C)CO)C(=O)c2cc(NC(=O)Cc3cn(C)c4ccccc34)ccc2O[C@H]1CN(C)S(=O)(=O)c1cccs1	inactive: 14.4%
COc1cccc(NC(=O)N(C)C[C@@H]2Oc3ncc(C#Cc4ccc(F)cc4)cc3C(=O)N([C@@H](C)CO)C[C@H]2C)c1	inactive: 36.3%
C[C@H](CO)N1C[C@H](C)[C@@H](CN(C)C(=O)NC2CCCCC2)OCCCC[C@H](C)Oc2ccc(NC(=O)Nc3cccc4ccccc34)cc2C1=O	inactive: -1.07%
CCOC(=O)c1ccc2c(c1)nc(COc1ccc(OC)cc1)n2CC	inactive: -4.99%
COc1ccc(S(=O)(=O)Nc2ccc3c(c2)CC(=O)N([C@H](C)CO)C[C@@H](C)[C@H](CN(C)Cc2ccccc2)O3)cc1	inactive: 25.7% [at 21 µM]
C/C(=C\C(=O)C(F)(F)F)Nc1cc(C)cc(C)c1	inactive: 1.8%
COc1ccc(-c2noc(-c3ccccc3C(=O)Nc3cccnc3)n2)cc1	inactive: 4.91%
O=C(Nc1ccccc1)NC1(C(=O)NCCCN2CCOCC2)CCCCC1	inactive: -2.64%
C[C@@H]1CN([C@@H](C)CO)C(=O)Cc2cc(NC(=O)CCCCCC(=O)Nc3ccccc3N)ccc2O[C@H]1CN(C)Cc1ccc(C(F)(F)F)cc1	inactive: 16%
CC(C)NC(=O)N(C)C[C@H]1Oc2ccc(N(C)C)cc2C(=O)N([C@@H](C)CO)C[C@H]1C	inactive: 25%
CCOC(=O)c1nn(C23CC4CC(CC(C4)C2)C3)c2c1C(=O)N(c1ccc(C)cc1)C2=O	inactive: -3.76%
O=C(O)Cc1c(O)ccc2ccccc12	inactive: 11.7%
C[C@H](CO)N1C[C@H](C)[C@H](CN(C)C(=O)Nc2cccc3ccccc23)Oc2ccc(NC(=O)Cn3cnnn3)cc2C1=O	inactive: -0.568%
O=S(=O)(c1ccccc1)N(CC(O)CN1CCCCC1)c1ccccc1 (stereo not given)	inactive: -31.4%
C[C@H](CO)N1C[C@H](C)[C@@H](CN(C)CC2CCCCC2)OCCCC[C@H](C)Oc2ccc(NC(=O)Nc3ccc4c(c3)OCO4)cc2C1=O	inactive: -46.2%
O=S1(=O)C=C(N2CCCCC2)c2ccccc21	inactive: 13.8%
C[C@@H]1CCCCO[C@@H](CN(C)Cc2ccc(C(F)(F)F)cc2)[C@@H](C)CN([C@@H](C)CO)C(=O)c2cc(NC(=O)CCC(F)(F)F)ccc2O1	inactive: 0.239%

SMILES	rescue activity (ATP increase)
COc1ccc(S(=O)(=O)Nc2ccc3c(c2)CC(=O)N([C@@H](C)CO)C[C@@H](C)[C@H](CN(C)Cc2ccc(C(F)(F)F)cc2)O3)cc1	inactive: 14.4%
CC1CCN(C(c2ccccc2)c2nnnn2C(C)(C)C)CC1 (stereo not given)	inactive: 29.9%
N#Cc1ccc(Oc2ccc(/C=N/O)cn2)cc1	inactive: 32.7%
Cc1ccc(NC(=O)c2ccccc2N(C)S(C)(=O)=O)cc1C	inactive: 3.5%
COc1ccc(C2CC(=O)Oc3c(C(CCN4CCCCC4)c4ccc(N(C)C)cc4)c(OC)cc(OC)c32)cc1 (stereo not given)	inactive: -41.5%
COCCNCC(=O)NC12CC3CC(CC(C3)C1)C2	inactive: 8.91%
OC[C@@H]1[C@H]2c3ccccc3NC[C@H]2N1Cc1ccccc1Cl	inactive: 13.3%
C[C@@H]1CCCCO[C@@H](CN(C)S(=O)(=O)c2ccc(F)cc2)[C@@H](C)CN([C@H](C)CO)C(=O)c2cc(NC(=O)Nc3cccc4ccccc34)ccc2O1	inactive: -3.78% [at 21 µM]
O=C1N(Cc2ccccc2F)c2ccccc2C12OCCCO2	inactive: 16.2%
C[C@@H]1CCCCO[C@H](CN(C)S(=O)(=O)c2cccs2)[C@H](C)CN([C@@H](C)CO)C(=O)c2cc(NC(=O)Nc3ccc(F)cc3)ccc2O1	inactive: 27.4%
S=C(NCc1ccco1)N1CCN(C(c2ccccc2)c2ccccc2)CC1	inactive: 36.2%
COCCNC(=O)CN(C(=O)CCC(=O)Nc1nccs1)c1ccccc1OC	inactive: 11.4%
O=C(CC12CC3CC(CC(C3)C1)C2)N1CCOCC1	inactive: 35.2%
O=C(COc1ccc2ccccc2c1)NNC(=O)Cc1cccc2ccccc12	inactive: -28.5%
COc1ccc(NC(=O)Nc2ccc3c(c2)C(=O)N([C@H](C)CO)C[C@H](C)[C@H](CN(C)C(=O)C2CCCCC2)OCCCC[C@H](C)O3)cc1	inactive: 8.91%
COc1ccc(S(=O)(=O)Nc2ccc3c(c2)CC(=O)N([C@@H](C)CO)C[C@H](C)[C@@H](CN(C)Cc2ccc(C(F)(F)F)cc2)O3)cc1	inactive: 15.7%
O=C(CCCCC(=O)NN=Cc1ccccc1O)NN=Cc1ccccc1O	inactive: -17.5%
COc1ccccc1NC(=O)N1CCN(c2cccc(C(F)(F)F)c2)CC1	inactive: 14.2%
Cc1ccc(NC(=O)COc2ccc(S(=O)(=O)N3CCOCC3)cc2)cc1	inactive: 7.96%
OC(CSc1c(Cl)cccc1Cl)CN1CCN(c2ccccc2F)CC1 (stereo not given)	inactive: 41.3%
C[C@@H]1CN([C@@H](C)CO)C(=O)c2cc(NC(=O)CCCCCC(=O)Nc3ccccc3N)ccc2O[C@@H]1CN(C)C(=O)Nc1ccc(C(F)(F)F)cc1	inactive: 12.9%
O=C(CCCCCN1C(=O)c2ccccc2C1=O)Nc1ccc2c(c1)OCCO2	inactive: 34.8%
C[C@@H]1CN([C@@H](C)CO)C(=O)c2cc(NS(=O)(=O)c3ccc(Cl)cc3)ccc2O[C@@H](C)CCCCO[C@H]1CN(C)C(=O)Nc1cccc2ccccc12	inactive: 13.2%
CCOc1ccc(C2SCC(=O)N2c2c(C)n(C)n(-c3ccccc3)c2=O)cc1 (stereo not given)	inactive: 41.8%

Some of the entries above, set out differently:

| SMILES | rescue activity (ATP increase) |
| --- | --- |
| COc1ccc(S(=O)(=O)Nc2ccc3c(c2)CC(=O)N([C@@H](C)CO)C[C@@H](C)[C@H](CN(C)Cc2ccc(C(F)(F)F)cc2)O3)cc1 | inactive: 14.4% |
| C[C@@H]1CCCCO[C@@H](CN(C)S(=O)(=O)c2ccc(F)cc2)[C@@H](C)CN([C@H](C)CO)C(=O)c2cc(NC(=O)Nc3cccc4ccccc34)ccc2O1 | inactive: -3.78% [at 21 µM] |
| CCOc1ccc(C2SCC(=O)N2c2c(C)n(C)n(-c3ccccc3)c2=O)cc1 (stereo not given) | inactive: 41.8% |

(more compounds)

SMILES	rescue activity (ATP increase)
C[C@@H]1CCCCO[C@H](CN(C)S(=O)(=O)c2cccs2)[C@H](C)CN([C@H](C)CO)C(=O)c2cc(NC(=O)Nc3ccc(F)cc3)ccc2O1	inactive: 19.6%
C[C@H](CO)N1C[C@H](C)[C@H](CN(C)S(=O)(=O)c2cccs2)OCCCC[C@H](C)Oc2ccc(NC(=O)Nc3ccc(F)cc3)cc2C1=O	inactive: -10.5%
C[C@@H]1CN([C@H](C)CO)C(=O)c2cccc(NS(=O)(=O)c3cccs3)c2O[C@@H]1CN(C)Cc1ccc(Oc2ccccc2)cc1	inactive: 37.4%
C[C@@H]1CN([C@H](C)CO)C(=O)Cc2cc(NC(=O)Cc3cn(C)c4ccccc34)ccc2O[C@@H]1CN(C)Cc1ccc2c(c1)OCO2	inactive: 23%
CN(C)CCN(C(=O)c1ccc2ccccc2c1)c1nc2c(F)cccc2s1	inactive: -26.6%
Cc1ccc(CC(=O)c2ccc(Cl)cc2)cc1	inactive: -1.44%
C[C@H](CO)N1C[C@H](C)[C@@H](CN(C)Cc2ccc(-c3ccccc3)cc2)Oc2ccc(NC(=O)c3ccncc3)cc2CC1=O	inactive: 18.2%
CCc1nnc(NC(=O)CSc2nnc(-c3ccc(NS(=O)(=O)c4ccccc4)cc3)o2)s1	inactive: -82.1%
O=C(CN1CCOCC1)N1CCN(c2nnc(-c3ccccc3)c3ccccc23)CC1	inactive: 11.1%
Cc1noc(C)c1NC(=O)Nc1ccc2c(c1)C(=O)N([C@@H](C)CO)C[C@@H](C)[C@@H](CN(C)S(=O)(=O)c1c(C)noc1C)OCCCC[C@@H](C)O2	inactive: 28.3%
O=C(NCCCNCCCNC(=O)c1ccccn1)c1ccccn1	inactive: 0.565%
C[C@@H]1CN([C@@H](C)CO)C(=O)c2cc(NS(=O)(=O)c3ccc(F)cc3)ccc2O[C@H]1CN(C)Cc1ccc(-c2ccccc2)cc1	inactive: 7.63% [at 21 µM]
C[C@@H]1CN([C@H](C)CO)C(=O)c2cc(NS(C)(=O)=O)ccc2O[C@@H](C)CCCCO[C@@H]1CN(C)S(=O)(=O)c1ccc(Cl)cc1	inactive: 15.7%
Cc1nn(C)cc1CNC(=O)Nc1cccc(Cl)c1	inactive: -9.74%
O=C(CC1C(=O)OCN1C(=O)OCc1ccccc1)OCC(=O)c1ccccc1 (stereo not given)	inactive: -14.1%
C[C@@H]1CCCCO[C@H](CN(C)C(=O)Nc2cccc3ccccc23)[C@H](C)CN([C@@H](C)CO)C(=O)c2cc(N(C)C)ccc2O1	inactive: -13.6%
C[C@H](CO)N1C[C@H](C)[C@H](CN(C)C(=O)Nc2cccc3ccccc23)Oc2ccc(NC(=O)Nc3ccc(C(F)(F)F)cc3)cc2CC1=O	inactive: 27%
COCCNC(=O)Nc1ccc2nc(-c3cccs3)c(-c3cccs3)nc2c1	inactive: -64.5%
C[C@H](CO)NC(=O)[C@@H]1C[C@H]1[C@@H](NP(=O)(c1ccccc1)c1ccccc1)c1ccccc1	inactive: 26.4%
O=C(COc1ccccc1F)NCCc1ccc2c(c1)OCCO2	inactive: 26.7%
CCCCCn1c(CCC(=O)Oc2ccccc2OC)nc2c1c(=O)[nH]c(=O)n2CCCC	inactive: 6.17%
C[C@H]1CN([C@@H](C)CO)C(=O)c2cccc(NC(=O)Nc3ccc4c(c3)OCO4)c2O[C@@H]1CN(C)CC1CCCCC1	inactive: 28.6%

— PubChem BioAssay AID624405 (Broad Institute, 2012)
